The values that follow come from patent EP0523085B1, “PEROXY ACID BLEACH PRECURSORS AND DETERGENT COMPOSITIONS CONTAINING THEM” (priority 1990, dated 1991).

Series [1] is described as follows: fabric colour damage model test under stressed dissolution conditions. Particulars: 0.01g powder sprinkled on swatch in 100mls 3% sodium perborate solution, 20°C; for pH of the solutions after 24 hrs: starting pH 9.3, average.
The nature of series [2]: model bleaching test at 10°C, stain removal by light reflectance. Particulars: 6 mmoles sodium perborate tetrahydrate and 3.5 mmoles precursor in 500ml distilled water, 3, 6 and 9 minutes.

Regarding sodium perborate [reference compound], in series [1], the “visual examination of swatches after 24 hrs (colour change)” value is “changed colour uniformly from deep blue to a sage green” and the “pH of the solutions after 24 hrs” value is listed as “approximately 9.3”.
Consider `CC(=O)N(CCS(=O)(=O)[O-])C(C)=O.[K+]` [KDAES, potassium N,N-diacetylaminoethane sulphonate], for which, in series [2], the “stain removal relative to the corresponding liquor containing TAED” value is recorded as “superior”. In series [1], the “visual examination of swatches after 24 hrs (colour change)” value is “little fading from the original blue colour and little unevenness in hue variation”; the “pH of the solutions after 24 hrs” value is on record as 8.2.
Take `CC(=O)N(CCC[N+](C)(C)C)C(C)=O.[Br-]` [DTAPB, N,N-diacetyl trimethylammonio propylamine bromide]: the “stain removal relative to the corresponding liquor containing TAED” value in series [2] is on record as “superior”.
